Measured values reported in patent publication US10159670B2, “Methods of diagnosing and treating motor neuron diseases and other cellular stress-related diseases” (priority 2012, dated 2018).
At least one structure is not confirmed: it was looked up by name or label, or the drawing left a doubt.

Tested on: mouse embryonic fibroblasts (MEFs)
Test: pre-miRNA and miRNA levels in mouse embryonic fibroblasts under stress
Format: cell-based
Details: HSP90 inhibitor 1 μM, 5 hrs pretreatment, then 36 hrs with Thapsigargin 5 nM
Description: (FIG. 7A) miRNA expression level analysis in the motor neuron cell line NSC-34, treated with 6.25 nM Thapsigargin for 24 hrs, relative to cells treated with carrier alone (DMSO). Shown are average and s.d. of qPCR analyses of 3 independent experiments. Pre-miRNAs (light grey, normalized to Gapdh) and miRNAs (dark grey, normalized to Snord68). (FIG. 7B) mRNA levels encoding for proteins involved in the canonical stress response, normalized to the expression of beta-actin. (FIG. 7C) miRNA expression level analysis in mouse embryonic motor neurons, treated with 5 nM Thapsigargin for 72 hrs, relative to cells treated with carrier alone (DMSO). Shown are average and s.d. of qPCR analyses of three independent experiments. Pre-miRNAs (light grey, normalized to Gapdh and beta actin) and miRNAs (dark grey, normalized to Snord70). […]
(FIG. 9A) The ratio of pre-miRNA to mature miRNA levels in NSC-34 cells, transfected with plasmids as indicated and in cells treated for 72 hrs with carrier alone (water, black) or with cycloheximide (CHX, 0.02 μg/ml, gray). […] Targeted quantitative mass spectrometry analysis of changes in the binding of Ago2 or Dicer to a set of proteins interactors under stress (FIGS. 9B-E). […]

With `COC1=C2C[C@@H](C)C[C@H](OC)[C@H](O)[C@@H](C)/C=C(\C)[C@H](OC(N)=O)[C@@H](OC)/C=C\C=C(/C)C(=O)NC(=CC1=O)C2=O` [Geldanamycin] the “Thapsigargin-induced inhibition of miRNA biogenesis (ratio of pre-miRNA to mature miRNA)” value was “aggravated Thapsigargin-induced inhibition of miRNA biogenesis”.
